Paper PMC9867983
These are yes or no findings as the source states them, for the method shown. In cells and extracts the contact can be indirect. Some binding calls cover weakened binding; strength is not graded here. Sequences can lack the tags named with a protein. One block for each binder: values may come before it.

Experiments:
[1] = target: T1, exogenous tagged MFN2 (Flag-MFN2 and MFN2-HA) (human), O95140; test: co-IP; immunoprecipitation by tag from lysates of cells transfected with Flag- and HA-tagged MFN1/MFN2 constructs (NETN buffer, 4 °C), Western blot of the other tagged copy; with or without HITT overexpression; IgG as negative control; conditions: remark: other sources report otherwise
T1 chain: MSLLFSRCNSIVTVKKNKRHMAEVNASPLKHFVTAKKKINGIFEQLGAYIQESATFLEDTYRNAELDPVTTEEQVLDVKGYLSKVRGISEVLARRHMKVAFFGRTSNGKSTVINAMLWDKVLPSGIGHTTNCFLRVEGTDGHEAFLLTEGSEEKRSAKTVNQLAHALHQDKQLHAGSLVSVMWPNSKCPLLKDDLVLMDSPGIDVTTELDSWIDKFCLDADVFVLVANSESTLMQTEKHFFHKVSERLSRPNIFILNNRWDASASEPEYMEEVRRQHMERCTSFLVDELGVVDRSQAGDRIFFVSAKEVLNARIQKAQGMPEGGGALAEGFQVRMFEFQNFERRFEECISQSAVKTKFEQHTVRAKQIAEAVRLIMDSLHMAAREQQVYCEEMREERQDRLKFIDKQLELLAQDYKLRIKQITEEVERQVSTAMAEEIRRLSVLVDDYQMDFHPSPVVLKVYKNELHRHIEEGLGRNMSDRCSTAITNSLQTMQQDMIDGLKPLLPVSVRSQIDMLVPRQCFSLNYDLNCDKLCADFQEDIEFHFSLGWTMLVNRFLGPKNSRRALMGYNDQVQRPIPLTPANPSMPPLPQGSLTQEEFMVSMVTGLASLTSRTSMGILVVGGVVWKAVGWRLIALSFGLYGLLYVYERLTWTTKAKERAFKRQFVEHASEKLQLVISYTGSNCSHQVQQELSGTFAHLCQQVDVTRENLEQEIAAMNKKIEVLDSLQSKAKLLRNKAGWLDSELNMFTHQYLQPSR

[2] = target: T2, mitofusin-2 (MFN2), endogenous (human (endogenous in HeLa and A549)), O95140; test: co-IP; anti-MFN2 immunoprecipitation from HeLa and A549 lysates (NETN buffer: 50 mM Tris-HCl pH 8.0, 150 mM NaCl, 1% NP-40, 1 mM EDTA; 4 °C), Western blot of MFN1; IgG as negative control; cells with HITT overexpression (also in doses, full length or fragments), HITT knock-down, 3 h UV treatment or MiR-205 overexpression; conditions: remark: other sources report otherwise
T2 chain: T1 chain

binding [1]: binds
B1: exogenous tagged MFN2 (Flag-MFN2 and MFN2-HA), O95140 1-757 (protein)
chain: T1 chain

binding [2]: binds
B2: mitofusin-1 (MFN1), endogenous, Q8IWA4 1-741 (protein)
chain: MAEPVSPLKHFVLAKKAITAIFDQLLEFVTEGSHFVEATYKNPELDRIATEDDLVEMQGYKDKLSIIGEVLSRRHMKVAFFGRTSSGKSSVINAMLWDKVLPSGIGHITNCFLSVEGTDGDKAYLMTEGSDEKKSVKTVNQLAHALHMDKDLKAGCLVRVFWPKAKCALLRDDLVLVDSPGTDVTTELDSWIDKFCLDADVFVLVANSESTLMNTEKHFFHKVNERLSKPNIFILNNRWDASASEPEYMEDVRRQHMERCLHFLVEELKVVNALEAQNRIFFVSAKEVLSARKQKAQGMPESGVALAEGFHARLQEFQNFEQIFEECISQSAVKTKFEQHTIRAKQILATVKNIMDSVNLAAEDKRHYSVEEREDQIDRLDFIRNQMNLLTLDVKKKIKEVTEEVANKVSCAMTDEICRLSVLVDEFCSEFHPNPDVLKIYKSELNKHIEDGMGRNLADRCTDEVNALVLQTQQEIIENLKPLLPAGIQDKLHTLIPCKKFDLSYNLNYHKLCSDFQEDIVFRFSLGWSSLVHRFLGPRNAQRVLLGLSEPIFQLPRSLASTPTAPTTPATPDNASQEELMITLVTGLASVTSRTSMGIIIVGGVIWKTIGWKLLSVSLTMYGALYLYERLSWTTHAKERAFKQQFVNYATEKLRMIVSSTSANCSHQVKQQIATTFARLCQQVDITQKQLEEEIARLPKEIDQLEKIQNNSKLLRNKAVQLENELENFTKQFLPSSNEES

binding [1]: binds
B3: exogenous tagged MFN1 (Flag-MFN1 and MFN1-HA), Q8IWA4 1-741 (protein)
chain: B2 chain
